PubChem BioAssay AID743121 | NCATS – 2013
Purpose: 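Knock-downs that sensitise breast cancer cells to camptothecin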 (primary screen). Cells: MDA-MB-231 cells, a human breast cancer line. Knock-down reagent: single siRNA against human genes, 20 nM siRNA (0.8 pmol per well). Duration: 120 h (drug added 48 h after transfection, read 72 h later). Challenge: camptothecin 20 nM (about EC30) for 72 h; vehicle 0.1% DMSO in parallel plates. Measurement: 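CellTiter-Glo ATP signal, scaled to control siRNA as percent viability; sensitisation given as log2 of untreated divided by camptothecin-treated viability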. Direction: log2 vehicle/camptothecin viability: higher = stronger sensitisation to camptothecin; viability with camptothecin and viability without drug: higher = more viable cells. Active means: 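Active genes have an RSA gene-level p-value below 0.001, computed from the ratios of their separate siRNAs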.
Shown is a random part of about 26,000 deposited reagents. 167 of all reagents (0.63%) count as active. 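Calls are per gene from RSA p-values that are not deposited; an individual active-marked siRNA can sensitise only weakly.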 The numbers tell different reagents against one gene apart. Reagent sequences are not shown.

gene | reagent no. | log2 vehicle/camptothecin viability | viability with camptothecin (% of control) | viability without drug (% of control) | activity call
ATOH1 (GeneID 474) | 1 | -0.129 | 65.8 | 60.1 | inactive
ATOH1 (GeneID 474) | 2 | -0.0991 | 108 | 101 | inactive
ATOH1 (GeneID 474) | 3 | -0.0408 | 42.9 | 41.7 | inactive
ATOH1 (GeneID 474) | 4 | -0.0225 | 87.7 | 86.3 | inactive
SORD (GeneID 6652) | 1 | -0.293 | 92.4 | 75.4 | inactive
SORD (GeneID 6652) | 2 | -0.141 | 54.3 | 49.2 | inactive
SORD (GeneID 6652) | 3 | -0.321 | 88.4 | 70.8 | inactive
HMGCS1 (GeneID 3157) | 1 | 0.0437 | 50.4 | 51.9 | inactive
HMGCS1 (GeneID 3157) | 2 | 0.4 | 12 | 15.9 | inactive
HMGCS1 (GeneID 3157) | 3 | -0.752 | 31 | 18.4 | inactive
HMGCS1 (GeneID 3157) | 4 | 0.14 | 23.8 | 26.2 | inactive
NECTIN4 (GeneID 81607) | 1 | -0.121 | 76.3 | 70.1 | inactive
NECTIN4 (GeneID 81607) | 2 | -0.125 | 105 | 96.1 | inactive
NECTIN4 (GeneID 81607) | 3 | -0.213 | 23.7 | 20.5 | inactive
NECTIN4 (GeneID 81607) | 4 | -0.298 | 148 | 121 | inactive
KCNA6 (GeneID 3742) | 1 | -0.733 | 99.6 | 59.9 | inactive
KCNA6 (GeneID 3742) | 2 | -0.0262 | 82.3 | 80.8 | inactive
KCNA6 (GeneID 3742) | 3 | -0.235 | 86 | 73.1 | inactive
ACSL4 (GeneID 2182) | 1 | -0.414 | 76.3 | 57.2 | inactive
ACSL4 (GeneID 2182) | 2 | -0.102 | 111 | 103 | inactive
ACSL4 (GeneID 2182) | 3 | 0.383 | 61.6 | 80.3 | inactive
ACSL4 (GeneID 2182) | 4 | -0.115 | 69.2 | 63.9 | inactive
CEP55 (GeneID 55165) | 1 | 0.195 | 71.3 | 81.7 | inactive
CEP55 (GeneID 55165) | 2 | -0.0832 | 81.2 | 76.6 | inactive
CEP55 (GeneID 55165) | 3 | 0.0413 | 93.4 | 96.1 | inactive
CEP55 (GeneID 55165) | 4 | 0.099 | 103 | 111 | inactive
IFNG (GeneID 3458) | 1 | -0.133 | 101 | 91.9 | inactive
IFNG (GeneID 3458) | 2 | -0.145 | 105 | 95.2 | inactive
IFNG (GeneID 3458) | 3 | -0.0654 | 76.3 | 72.9 | inactive
IFNG (GeneID 3458) | 4 | -0.206 | 82.6 | 71.6 | inactive
TREML2 (GeneID 79865) | 1 | -0.41 | 70.6 | 53.2 | inactive
TREML2 (GeneID 79865) | 2 | 0.93 | 36.3 | 69.2 | inactive
TREML2 (GeneID 79865) | 3 | -0.135 | 31.2 | 28.4 | inactive
TREML2 (GeneID 79865) | 4 | -0.352 | 90.9 | 71.2 | inactive
ABCB10 (GeneID 23456) | 1 | -0.38 | 108 | 83 | inactive
ABCB10 (GeneID 23456) | 2 | -0.151 | 38.9 | 35 | inactive
ABCB10 (GeneID 23456) | 3 | 0.188 | 58.2 | 66.3 | inactive
IGBP1 (GeneID 3476) | 1 | -0.0768 | 67.1 | 63.6 | inactive
IGBP1 (GeneID 3476) | 2 | 0.427 | 54.6 | 73.5 | inactive
IGBP1 (GeneID 3476) | 3 | -0.19 | 105 | 91.7 | inactive
IGBP1 (GeneID 3476) | 4 | 0.375 | 59.3 | 76.9 | inactive
HDAC8 (GeneID 55869) | 1 | 0.126 | 87.6 | 95.5 | inactive
HDAC8 (GeneID 55869) | 2 | 0.00864 | 39.2 | 39.4 | inactive
HDAC8 (GeneID 55869) | 3 | 1.15 | 16.5 | 36.5 | inactive
HDAC8 (GeneID 55869) | 4 | -0.0941 | 91.5 | 85.7 | inactive
HOXA1 (GeneID 3198) | 1 | 3.4 | 10.4 | 110 | active
HOXA1 (GeneID 3198) | 2 | 0.092 | 87.3 | 93.1 | active
HOXA1 (GeneID 3198) | 3 | 0.218 | 27.8 | 32.3 | active
HOXA1 (GeneID 3198) | 4 | -0.101 | 118 | 110 | active
GML (GeneID 2765) | 1 | -0.38 | 56 | 43 | inactive
GML (GeneID 2765) | 2 | -0.235 | 70 | 59.5 | inactive
GML (GeneID 2765) | 3 | -0.0257 | 42 | 41.3 | inactive
GML (GeneID 2765) | 4 | 0.0201 | 83.8 | 85 | inactive
MCF2 (GeneID 4168) | 1 | -0.0653 | 109 | 105 | inactive
MCF2 (GeneID 4168) | 2 | -0.595 | 92.6 | 61.3 | inactive
MCF2 (GeneID 4168) | 3 | -0.227 | 74.4 | 63.6 | inactive
MCF2 (GeneID 4168) | 4 | -0.327 | 124 | 98.5 | inactive
KIFAP3 (GeneID 22920) | 1 | -0.406 | 92.9 | 70.1 | inactive
KIFAP3 (GeneID 22920) | 2 | 0.177 | 114 | 128 | inactive
KIFAP3 (GeneID 22920) | 3 | -0.445 | 80.6 | 59.2 | inactive
TRIML2 (GeneID 205860) | 1 | -0.101 | 69.8 | 65.1 | inactive
TRIML2 (GeneID 205860) | 2 | -0.251 | 43.4 | 36.5 | inactive
TRIML2 (GeneID 205860) | 3 | 0.207 | 27.3 | 31.6 | inactive
TRIML2 (GeneID 205860) | 4 | -0.134 | 116 | 106 | inactive
NEUROD1 (GeneID 4760) | 1 | -0.277 | 102 | 84.5 | inactive
NEUROD1 (GeneID 4760) | 2 | -0.053 | 96.9 | 93.4 | inactive
NEUROD1 (GeneID 4760) | 3 | -0.00401 | 107 | 107 | inactive
NEUROD1 (GeneID 4760) | 4 | -0.445 | 76.3 | 56 | inactive

Reagents listed above marked active (4):
gene | reagent no. | log2 vehicle/camptothecin viability | viability with camptothecin (% of control) | viability without drug (% of control) | activity call
HOXA1 (GeneID 3198) | 1 | 3.4 | 10.4 | 110 | active
HOXA1 (GeneID 3198) | 2 | 0.092 | 87.3 | 93.1 | active
HOXA1 (GeneID 3198) | 3 | 0.218 | 27.8 | 32.3 | active
HOXA1 (GeneID 3198) | 4 | -0.101 | 118 | 110 | active
